The list shows a part of the results.
Assays:
Experiment in all cases: log2 fold change, soluble protein after heating vs DMSO (PISA); higher = thermal stabilisation; K562 cells, 10 uM, 30 min; active = over 0.2 and 3.5 SD of the protein, either way, in both replicates (recomputed)
erlotinib = compound: C#Cc1cccc(Nc2ncnc3cc(OCCOC)c(OCCOC)cc23)c1 [erlotinib]
Procedure, shortened: (§1)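 For each measurement, 10 μM compound was applied for 30 min to K562 cells at 2×10^6 cells/mL. Aliquots were heated for 3 min across 48°C-58°C, pooled, and extracted in PBS with 0.5% NP-40 at 4°C; the supernatant after 21,000xg for 90 min was soluble protein. This was quantified by TMTpro 16plex LC-MS/MS with channel sums equalised, and thermal stability was reported relative to control samples from duplicates, on a log2 fold-change scale.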

Amino acid sequences for entries named in this document (tags omitted). A change or cut given only in a name is not applied to a line headed by its entry.
UniProt P84090, whole entry, looked up: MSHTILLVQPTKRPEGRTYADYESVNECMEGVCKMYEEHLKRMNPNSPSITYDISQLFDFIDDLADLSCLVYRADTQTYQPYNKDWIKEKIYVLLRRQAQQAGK
UniProt Q9UBQ6: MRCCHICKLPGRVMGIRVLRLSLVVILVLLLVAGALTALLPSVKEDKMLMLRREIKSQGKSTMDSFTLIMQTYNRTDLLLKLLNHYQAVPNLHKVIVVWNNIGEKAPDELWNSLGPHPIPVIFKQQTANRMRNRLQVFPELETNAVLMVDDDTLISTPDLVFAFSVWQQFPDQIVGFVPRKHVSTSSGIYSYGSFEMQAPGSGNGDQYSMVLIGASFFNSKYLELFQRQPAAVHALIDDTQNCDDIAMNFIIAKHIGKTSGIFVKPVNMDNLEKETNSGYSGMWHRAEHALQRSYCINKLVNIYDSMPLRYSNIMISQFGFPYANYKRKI
UniProt Q7Z309: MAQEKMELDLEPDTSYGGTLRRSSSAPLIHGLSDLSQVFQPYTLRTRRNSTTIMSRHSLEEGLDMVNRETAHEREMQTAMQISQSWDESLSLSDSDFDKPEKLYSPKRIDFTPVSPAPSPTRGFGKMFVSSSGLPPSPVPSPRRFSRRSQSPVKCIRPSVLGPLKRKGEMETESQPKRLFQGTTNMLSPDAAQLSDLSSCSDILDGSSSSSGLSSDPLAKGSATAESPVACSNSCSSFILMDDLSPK
UniProt Q96A26: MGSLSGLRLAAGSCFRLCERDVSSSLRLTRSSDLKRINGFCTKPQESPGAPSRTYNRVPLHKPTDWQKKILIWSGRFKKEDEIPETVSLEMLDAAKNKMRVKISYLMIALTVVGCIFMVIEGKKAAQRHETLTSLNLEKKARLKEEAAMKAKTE
UniProt Q96KP1: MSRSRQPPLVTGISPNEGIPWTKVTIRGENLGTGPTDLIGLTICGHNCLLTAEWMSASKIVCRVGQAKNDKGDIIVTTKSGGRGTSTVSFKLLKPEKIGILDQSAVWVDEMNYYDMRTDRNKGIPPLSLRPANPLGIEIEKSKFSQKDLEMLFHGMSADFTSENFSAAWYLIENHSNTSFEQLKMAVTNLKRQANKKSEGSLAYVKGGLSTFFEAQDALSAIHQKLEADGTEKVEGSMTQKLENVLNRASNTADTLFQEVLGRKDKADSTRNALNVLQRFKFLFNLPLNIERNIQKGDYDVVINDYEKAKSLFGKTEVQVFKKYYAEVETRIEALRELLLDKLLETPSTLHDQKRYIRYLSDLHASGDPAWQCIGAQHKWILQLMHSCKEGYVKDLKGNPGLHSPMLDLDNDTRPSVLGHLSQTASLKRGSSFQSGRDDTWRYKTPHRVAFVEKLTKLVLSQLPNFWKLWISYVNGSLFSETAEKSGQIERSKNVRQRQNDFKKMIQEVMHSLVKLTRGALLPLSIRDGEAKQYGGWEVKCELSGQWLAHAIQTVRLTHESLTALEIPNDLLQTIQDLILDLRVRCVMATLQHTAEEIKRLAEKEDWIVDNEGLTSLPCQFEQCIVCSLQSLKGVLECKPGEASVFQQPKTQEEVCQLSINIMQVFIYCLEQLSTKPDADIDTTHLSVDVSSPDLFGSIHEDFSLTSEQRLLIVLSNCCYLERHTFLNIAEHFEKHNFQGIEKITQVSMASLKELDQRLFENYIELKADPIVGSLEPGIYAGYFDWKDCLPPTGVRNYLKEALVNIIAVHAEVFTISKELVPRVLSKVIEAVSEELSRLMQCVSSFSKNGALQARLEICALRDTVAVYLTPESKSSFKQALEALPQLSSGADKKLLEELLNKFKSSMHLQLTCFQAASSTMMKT
UniProt Q92889: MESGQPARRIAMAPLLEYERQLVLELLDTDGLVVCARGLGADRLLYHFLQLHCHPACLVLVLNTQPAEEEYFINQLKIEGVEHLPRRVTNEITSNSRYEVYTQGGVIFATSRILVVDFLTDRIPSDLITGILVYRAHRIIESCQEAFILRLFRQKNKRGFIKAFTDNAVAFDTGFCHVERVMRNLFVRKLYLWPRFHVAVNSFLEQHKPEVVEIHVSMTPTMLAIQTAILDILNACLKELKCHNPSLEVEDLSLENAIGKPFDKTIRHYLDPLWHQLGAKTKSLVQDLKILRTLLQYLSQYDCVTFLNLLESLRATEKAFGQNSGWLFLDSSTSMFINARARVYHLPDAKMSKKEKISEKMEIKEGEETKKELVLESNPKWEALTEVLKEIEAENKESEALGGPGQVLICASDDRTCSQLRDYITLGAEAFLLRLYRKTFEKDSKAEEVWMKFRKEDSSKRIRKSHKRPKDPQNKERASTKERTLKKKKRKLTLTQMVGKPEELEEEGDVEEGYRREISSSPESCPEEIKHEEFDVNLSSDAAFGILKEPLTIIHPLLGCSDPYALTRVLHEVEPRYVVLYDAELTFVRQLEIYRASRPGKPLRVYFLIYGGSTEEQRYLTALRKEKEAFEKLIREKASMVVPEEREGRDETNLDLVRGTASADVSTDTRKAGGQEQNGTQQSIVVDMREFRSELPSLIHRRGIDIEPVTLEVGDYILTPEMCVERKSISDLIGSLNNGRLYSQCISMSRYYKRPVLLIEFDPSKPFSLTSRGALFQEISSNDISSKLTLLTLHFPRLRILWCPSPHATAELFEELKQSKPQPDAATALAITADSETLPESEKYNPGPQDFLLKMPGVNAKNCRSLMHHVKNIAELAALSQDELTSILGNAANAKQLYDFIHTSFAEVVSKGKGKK
UniProt O43414: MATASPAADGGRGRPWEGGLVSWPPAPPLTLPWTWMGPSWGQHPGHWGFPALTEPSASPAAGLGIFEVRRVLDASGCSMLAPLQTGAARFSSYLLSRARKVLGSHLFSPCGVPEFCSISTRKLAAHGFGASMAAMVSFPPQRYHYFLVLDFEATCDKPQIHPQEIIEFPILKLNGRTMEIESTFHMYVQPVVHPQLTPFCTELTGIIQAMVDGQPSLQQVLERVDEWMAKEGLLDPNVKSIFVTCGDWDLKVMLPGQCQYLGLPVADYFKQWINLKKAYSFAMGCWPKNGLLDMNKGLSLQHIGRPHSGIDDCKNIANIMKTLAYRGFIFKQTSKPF
UniProt Q9GZU8: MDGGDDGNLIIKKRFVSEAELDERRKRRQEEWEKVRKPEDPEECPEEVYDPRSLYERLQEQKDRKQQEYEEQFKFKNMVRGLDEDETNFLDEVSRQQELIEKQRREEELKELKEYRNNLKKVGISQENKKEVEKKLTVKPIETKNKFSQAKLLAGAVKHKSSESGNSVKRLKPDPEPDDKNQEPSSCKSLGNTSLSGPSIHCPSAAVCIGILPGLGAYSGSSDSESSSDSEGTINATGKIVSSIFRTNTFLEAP
UniProt Q9UPT5: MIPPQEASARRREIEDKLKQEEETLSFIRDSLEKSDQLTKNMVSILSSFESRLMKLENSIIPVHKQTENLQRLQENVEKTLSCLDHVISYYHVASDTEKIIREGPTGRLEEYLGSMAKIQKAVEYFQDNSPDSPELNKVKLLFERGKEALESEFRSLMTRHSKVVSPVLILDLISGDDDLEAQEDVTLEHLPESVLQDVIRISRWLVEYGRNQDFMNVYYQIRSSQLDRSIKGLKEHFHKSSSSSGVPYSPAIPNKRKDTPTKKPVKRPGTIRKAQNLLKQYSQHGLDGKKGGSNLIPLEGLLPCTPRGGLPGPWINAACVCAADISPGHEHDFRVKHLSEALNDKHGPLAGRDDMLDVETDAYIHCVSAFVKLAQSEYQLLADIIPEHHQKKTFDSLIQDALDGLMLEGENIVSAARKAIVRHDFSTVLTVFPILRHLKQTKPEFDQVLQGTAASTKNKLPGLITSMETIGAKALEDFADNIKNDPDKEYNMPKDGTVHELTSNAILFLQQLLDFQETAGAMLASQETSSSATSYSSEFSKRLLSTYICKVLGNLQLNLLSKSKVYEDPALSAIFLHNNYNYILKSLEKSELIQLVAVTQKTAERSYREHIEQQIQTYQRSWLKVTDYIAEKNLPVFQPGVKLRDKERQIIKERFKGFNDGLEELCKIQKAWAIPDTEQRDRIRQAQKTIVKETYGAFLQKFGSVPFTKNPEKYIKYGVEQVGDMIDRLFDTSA
UniProt Q9Y2J2, whole entry, looked up: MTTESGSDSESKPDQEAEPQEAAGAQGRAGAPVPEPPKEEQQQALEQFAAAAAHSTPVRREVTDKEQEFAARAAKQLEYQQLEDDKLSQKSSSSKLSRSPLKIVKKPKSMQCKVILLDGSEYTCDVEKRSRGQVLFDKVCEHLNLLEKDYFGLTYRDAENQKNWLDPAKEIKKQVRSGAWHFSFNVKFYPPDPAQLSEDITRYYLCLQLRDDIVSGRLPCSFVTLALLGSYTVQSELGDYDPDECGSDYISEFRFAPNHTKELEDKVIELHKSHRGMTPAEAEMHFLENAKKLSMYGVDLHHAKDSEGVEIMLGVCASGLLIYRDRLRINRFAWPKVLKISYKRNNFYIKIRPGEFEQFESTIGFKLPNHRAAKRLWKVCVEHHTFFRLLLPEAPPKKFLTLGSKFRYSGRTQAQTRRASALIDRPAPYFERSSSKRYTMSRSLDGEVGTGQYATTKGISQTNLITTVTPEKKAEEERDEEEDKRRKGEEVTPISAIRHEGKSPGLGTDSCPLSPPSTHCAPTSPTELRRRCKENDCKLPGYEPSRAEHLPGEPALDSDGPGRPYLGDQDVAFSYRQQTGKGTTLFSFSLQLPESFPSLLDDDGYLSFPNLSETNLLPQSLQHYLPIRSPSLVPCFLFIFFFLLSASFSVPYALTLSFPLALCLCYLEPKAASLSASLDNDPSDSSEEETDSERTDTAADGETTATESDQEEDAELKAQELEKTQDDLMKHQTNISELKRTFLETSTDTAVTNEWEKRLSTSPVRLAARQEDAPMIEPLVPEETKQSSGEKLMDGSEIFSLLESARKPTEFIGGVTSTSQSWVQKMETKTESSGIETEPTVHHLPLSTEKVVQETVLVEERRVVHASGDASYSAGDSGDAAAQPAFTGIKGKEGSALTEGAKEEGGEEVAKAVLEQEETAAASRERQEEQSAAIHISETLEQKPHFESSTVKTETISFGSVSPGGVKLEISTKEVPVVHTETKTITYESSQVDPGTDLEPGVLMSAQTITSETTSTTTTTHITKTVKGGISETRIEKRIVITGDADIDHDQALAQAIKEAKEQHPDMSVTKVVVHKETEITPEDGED
UniProt Q96GK7: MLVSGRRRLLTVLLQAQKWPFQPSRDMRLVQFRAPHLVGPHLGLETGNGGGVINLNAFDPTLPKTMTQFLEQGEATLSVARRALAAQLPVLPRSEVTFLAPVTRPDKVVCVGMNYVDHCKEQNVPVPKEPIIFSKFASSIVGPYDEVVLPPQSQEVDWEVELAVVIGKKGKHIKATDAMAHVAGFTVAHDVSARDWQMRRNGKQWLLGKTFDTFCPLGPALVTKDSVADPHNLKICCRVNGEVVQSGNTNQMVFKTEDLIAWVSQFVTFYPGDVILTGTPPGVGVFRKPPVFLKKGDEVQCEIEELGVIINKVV
UniProt O95571: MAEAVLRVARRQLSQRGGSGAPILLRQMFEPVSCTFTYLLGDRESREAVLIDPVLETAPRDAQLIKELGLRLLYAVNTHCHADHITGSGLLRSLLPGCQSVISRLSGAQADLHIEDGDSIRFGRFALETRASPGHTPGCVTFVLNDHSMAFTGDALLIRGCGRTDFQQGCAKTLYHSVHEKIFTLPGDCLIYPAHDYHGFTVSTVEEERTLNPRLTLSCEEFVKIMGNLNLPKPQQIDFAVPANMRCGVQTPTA
UniProt Q8IYI6: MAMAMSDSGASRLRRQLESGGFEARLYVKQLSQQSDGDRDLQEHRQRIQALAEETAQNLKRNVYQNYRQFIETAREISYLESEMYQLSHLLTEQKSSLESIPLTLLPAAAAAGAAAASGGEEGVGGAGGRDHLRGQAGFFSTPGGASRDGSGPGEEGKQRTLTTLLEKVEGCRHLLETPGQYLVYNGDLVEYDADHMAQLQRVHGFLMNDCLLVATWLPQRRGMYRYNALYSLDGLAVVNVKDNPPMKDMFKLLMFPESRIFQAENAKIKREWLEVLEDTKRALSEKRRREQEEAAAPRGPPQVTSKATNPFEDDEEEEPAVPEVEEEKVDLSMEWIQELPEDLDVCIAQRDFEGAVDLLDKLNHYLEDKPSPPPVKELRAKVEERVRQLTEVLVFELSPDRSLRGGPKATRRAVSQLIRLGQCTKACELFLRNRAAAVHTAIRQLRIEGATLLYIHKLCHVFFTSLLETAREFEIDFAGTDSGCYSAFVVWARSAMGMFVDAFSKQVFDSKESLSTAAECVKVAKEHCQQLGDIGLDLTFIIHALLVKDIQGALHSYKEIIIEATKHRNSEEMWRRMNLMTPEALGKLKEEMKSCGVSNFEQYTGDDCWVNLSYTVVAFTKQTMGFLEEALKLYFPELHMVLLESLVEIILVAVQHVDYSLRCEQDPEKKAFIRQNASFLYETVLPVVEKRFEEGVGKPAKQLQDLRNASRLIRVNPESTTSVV

[1] = compound: C/C(=N\NC(=O)C1=CC(=CC=C1)S(=O)(=O)N2CCOCC2)/C3=C(C=CC(=C3)Cl)O
Procedure, shortened: as §1

[2] = compound: C1=CC(=C(C=C1Cl)C2=NC3=NC=CN=C3C(=N2)NC4=CC=NC=C4)F
Procedure, shortened: as §1

[3] = compound: C1=CC(=CC=C1C2=NC3=C(N2)C=C(C=C3)C(=O)N)OC4=CC=C(C=C4)Cl
Procedure, shortened: as §1

[4] = compound: C1=CC2=C(C=CC(=C2)/C=C\3/C(=O)NC(=NCC4=CC=CS4)S3)N=C1
Procedure, shortened: as §1

[5] = compound: C1=CC2=NC=CN=C2C=C1/C=C/3\C(=O)NC(=O)S3
Procedure, shortened: as §1

[6] = compound: C1=CC=C(C=C1)C2=NC(=C(N2)C3=CC=NC=C3)C4=CC(=C(C=C4)Cl)O
Procedure, shortened: as §1

[7] = compound: C1=CC=C2C(=C1)C3=NNC4=CC=CC(=C43)C2=O
Procedure, shortened: as §1

[8] = compound: C1CCN(C1)C(=O)NC2=CC=CC(=C2)NC3=NC=C(C(=N3)NCCC4=CN=CN4)Br
Procedure, shortened: as §1

[9] = compound: C1CN(CCC1(CC2=CC=C(C=C2)Cl)N)C3=NC=NC4=C3C=CN4
Procedure, shortened: as §1

Measured: log2 fold change

EPS15L1 isoform 2 (UniProt Q9UBC2)
inactive: erlotinib 0.007 | [1] 0.034 | [2] 0.031 | [3] -0.016 | [4] -0.011 | [5] 0.029 | [6] -0.026 | [7] -0.008 | [8] 0.034 | [9] -0.158

ERH (UniProt P84090)
inactive: erlotinib -0.033 | [1] -0.012 | [2] 0.048 | [3] 0.036 | [4] 0.014 | [5] 0.017 | [6] -0.017 | [7] -0.009 | [8] -0.088 | [9] -0.104

ERO1A (UniProt Q96HE7)
inactive: erlotinib -0.012 | [1] -0.004 | [2] 0.001 | [3] 0.012 | [4] 0.005 | [5] 0.018 | [6] -0.017 | [7] 0.008 | [8] 0.009 | [9] -0.025

EXTL2 (UniProt Q9UBQ6)
inactive: erlotinib 0.051 | [1] 0.018 | [2] -0.129 | [3] 0.04 | [4] 0.016 | [5] 0.037 | [6] -0.031 | [7] 0.062 | [8] -0.092 | [9] -0.119

FAM122B isoform 3 (UniProt Q7Z309)
inactive: erlotinib 0.111 | [1] -0.074 | [2] -0.028 | [3] 0.017 | [4] -0.102 | [5] 0.003 | [6] 0.04 | [7] 0.035 | [8] -0.134 | [9] 0.071

F11R (UniProt Q9Y624)
inactive: erlotinib -0.01 | [1] -0.013 | [2] 0.07 | [3] 0 | [4] 0.029 | [5] 0.012 | [6] -0.017 | [7] -0.09 | [8] -0.021 | [9] 0.054

EXOC4 (UniProt Q96A65)
inactive: erlotinib 0.131 | [1] 0.159 | [2] 0.044 | [3] -0.071 | [4] 0.09 | [5] 0.033 | [6] -0.036 | [7] -0.018 | [8] -0.02 | [9] -0.083

Fetched one by one from the entries so far (2):
EXOC4 (UniProt Q96A65)
inactive: erlotinib 0.131 | [1] 0.159 | [2] 0.044 | [3] -0.071 | [4] 0.09 | [5] 0.033 | [6] -0.036 | [7] -0.018 | [8] -0.02 | [9] -0.083

F11R (UniProt Q9Y624)
inactive: erlotinib -0.01 | [1] -0.013 | [2] 0.07 | [3] 0 | [4] 0.029 | [5] 0.012 | [6] -0.017 | [7] -0.09 | [8] -0.021 | [9] 0.054

The listing continues:

EXOSC7 (UniProt Q15024)
inactive: erlotinib 0.025 | [1] -0.038 | [2] -0.012 | [3] -0.006 | [4] 0.001 | [5] 0.034 | [6] -0.043 | [7] -0.029 | [8] 0.019 | [9] 0.043

FAM162A (UniProt Q96A26)
inactive: erlotinib -0.005 | [1] 0.069 | [2] -0.002 | [3] 0.034 | [4] 0.108 | [5] 0.007 | [6] -0.018 | [7] -0.012 | [8] -0.028 | [9] -0.052

ERP29 (UniProt P30040)
inactive: erlotinib -0.07 | [1] -0.004 | [2] 0.024 | [3] -0.004 | [4] -0.022 | [5] -0.03 | [6] -0.005 | [7] 0.018 | [8] 0.014 | [9] -0.004

EXOC2 (UniProt Q96KP1)
inactive: erlotinib 0.07 | [1] 0.083 | [2] -0.027 | [3] -0.045 | [4] 0.05 | [5] 0.006 | [6] -0.013 | [7] 0.054 | [8] -0.014 | [9] -0.119

ERCC6 (UniProt Q03468)
inactive: erlotinib -0.036 | [1] 0.06 | [2] 0.028 | [3] -0.063 | [4] -0.096 | [5] -0.224 | [6] -0.052 | [7] 0.003 | [8] -0.065 | [9] 0.106

ERCC4 (UniProt Q92889)
inactive: erlotinib 0.093 | [1] 0.005 | [2] 0.012 | [3] -0.045 | [4] 0.123 | [5] 0.023 | [6] 0.045 | [7] 0 | [8] 0.214 | [9] -0.162

ERI3 (UniProt O43414)
inactive: erlotinib 0.038 | [1] 0.05 | [2] 0.074 | [3] 0.035 | [4] 0.029 | [5] 0.028 | [6] 0.016 | [7] -0.04 | [8] 0.028 | [9] -0.028

ERCC3 (UniProt P19447)
inactive: erlotinib -0.012 | [1] 0.058 | [2] -0.189 | [3] -0.081 | [4] 0.114 | [5] -0.078 | [6] 0.101 | [7] 0.051 | [8] -0.098 | [9] -0.162

F2 (UniProt P00734)
inactive: erlotinib 0.011 | [1] -0.209 | [2] -0.017 | [3] -0.018 | [4] 0.079 | [5] -0.053 | [6] -0.08 | [7] -0.112 | [8] 0.09 | [9] 0.112

FAM192A (UniProt Q9GZU8)
inactive: erlotinib 0.006 | [1] -0.007 | [2] 0.018 | [3] 0.02 | [4] 0.006 | [5] 0.027 | [6] -0.047 | [7] -0.049 | [8] 0.019 | [9] 0.037

ETNK1 (UniProt Q9HBU6)
inactive: erlotinib 0.004 | [1] 0.128 | [2] 0.244 | [3] -0.001 | [4] -0.126 | [5] 0.035 | [6] 0.037 | [7] 0.028 | [8] -0.033 | [9] -0.119

EXOSC8 (UniProt Q96B26)
inactive: erlotinib -0.086 | [1] -0.023 | [2] -0.012 | [3] 0.019 | [4] -0.087 | [5] 0.001 | [6] 0.006 | [7] -0.016 | [8] 0.016 | [9] 0.026

ERVK3-1, A0A0U1RQV1
inactive: erlotinib -0.011 | [1] -0.207 | [2] 0.344 | [3] 0.023 | [4] -0.057 | [5] 0.18 | [6] 0.092 | [7] -0.049 | [8] 0 | [9] -0.012

FAF2 (UniProt Q96CS3)
inactive: erlotinib 0.009 | [1] 0.078 | [2] -0.003 | [3] 0.02 | [4] 0.049 | [5] 0.03 | [6] 0.15 | [7] 0.009 | [8] 0.035 | [9] 0.004

EXOC7 (UniProt Q9UPT5)
inactive: erlotinib 0.032 | [1] 0.074 | [2] 0.001 | [3] -0.042 | [4] 0.048 | [5] 0.016 | [6] 0.011 | [7] -0.016 | [8] -0.023 | [9] -0.014

ERGIC1 (UniProt Q969X5)
inactive: erlotinib 0.029 | [1] 0.022 | [2] 0.012 | [3] -0.005 | [4] 0.049 | [5] 0.052 | [6] -0.008 | [7] -0.04 | [8] 0.015 | [9] 0.041

EPB41L3 (UniProt Q9Y2J2)
inactive: erlotinib -0.034 | [1] 0.071 | [2] 0.011 | [3] 0.081 | [4] -0.025 | [5] 0.014 | [6] -0.014 | [7] -0.087 | [8] -0.02 | [9] 0

EPCAM (UniProt P16422)
inactive: erlotinib -0.028 | [1] 0.072 | [2] -0.017 | [3] 0.019 | [4] -0.042 | [5] -0.032 | [6] -0.049 | [7] -0.044 | [8] -0.11 | [9] 0.031

FAHD2B (UniProt Q6P2I3)
inactive: erlotinib -0.02 | [1] 0.085 | [2] 0.131 | [3] 0.061 | [4] 0.078 | [5] -0.009 | [6] -0.005 | [7] -0.019

FAHD2A (UniProt Q96GK7)
inactive: erlotinib 0.022 | [1] 0.024 | [2] 0.023 | [3] -0.034 | [4] 0.01 | [5] -0.002 | [6] 0.004 | [7] -0.034 | [8] -0.028 | [9] -0.03

ERCC5 (UniProt P28715)
inactive: erlotinib -0.03 | [1] -0.003 | [2] -0.254 | [3] 0.098 | [4] -0.076 | [5] -0.109 | [6] -0.024 | [7] -0.013 | [8] 0.076 | [9] 0

ETHE1 (UniProt O95571)
inactive: erlotinib 0.038 | [1] -0.02 | [2] 0.048 | [3] 0.027 | [4] 0.025 | [5] 0.04 | [6] 0.023 | [7] -0.023 | [8] -0.003 | [9] 0.014

EXOC8 (UniProt Q8IYI6)
inactive: erlotinib 0.048 | [1] 0.144 | [2] -0.042 | [3] -0.056 | [4] 0.05 | [5] 0.017 | [6] -0.012 | [7] 0.001 | [8] -0.053 | [9] -0.054

Reference: the supplement of paper PMC10849652
